Data from paper doi:10.1101/2020.12.11.420943.

How the values were obtained:
[1] = biological target: T1, XcpIp, soluble periplasmic domain of the minor pseudopilin XcpI (Pseudomonas aeruginosa) (UniProt Q00516); assay: cross-linking
T1 sequence: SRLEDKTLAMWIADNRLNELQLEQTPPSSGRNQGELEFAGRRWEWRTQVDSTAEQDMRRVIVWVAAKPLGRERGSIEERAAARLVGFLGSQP

[2] = biological target: T2, XcpKp, soluble periplasmic domain of the minor pseudopilin XcpK (Pseudomonas aeruginosa) (UniProt Q00518); assay: cross-linking
T2 sequence: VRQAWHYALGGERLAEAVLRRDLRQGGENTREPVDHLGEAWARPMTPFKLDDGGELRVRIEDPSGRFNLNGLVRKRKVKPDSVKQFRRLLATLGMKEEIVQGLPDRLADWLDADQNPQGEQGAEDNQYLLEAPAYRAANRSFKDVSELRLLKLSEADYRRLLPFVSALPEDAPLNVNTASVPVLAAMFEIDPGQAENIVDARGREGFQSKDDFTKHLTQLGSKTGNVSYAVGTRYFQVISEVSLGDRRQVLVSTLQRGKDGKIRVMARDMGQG

In the case of “XcpHp, soluble periplasmic domain of the minor pseudopilin XcpH (from UniProt Q00515) (domain or fragment)”, the binding [1] is reported as “binds” and the binding [2] is reported as “binds”.

Results are given in words; binding and its absence hold for the method and conditions named. Binding calls can cover weak binding; strength is not graded here.
